Series [1] has as its target hnRNP K KH3 domain (UniProt P61978). The experiment in a line: ITC. The settings on record: ITC: 50 mM Tris pH 7.5, 150 mM NaCl, 20 C; recombinant protein; single-stranded DNA.
Series [2] has the same target. Description: MST. To be noted: MST: 20 nM Atto488-protein, PBS with Tween-20 (0.1% in 2x protein stock), 25 C; recombinant protein; single-stranded DNA.

For at least one entry, the source does not settle the construct or the ends of the probe.

For the sequence CTCCCC [hnRNP K binding motif CTCCCC], the Kd in series [1] amounted to 13.8 µM; in series [2], 11.9 µM.

The values above are taken from article PMC8139980.
